PubChem BioAssay AID652259 – Drosophila RNAi Screening Center | 2013
In all, the deposit lists about 22,000 reagents; shown is a random part of those that have a named target and a result. In the full data, 233 (1.1%) are marked active. 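Light values are raw, unnormalised plate reads; the ratio scores behind the reporter calls were not deposited.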 Entries without a mark were called inactive. Names joined by + are all predicted targets of the reagent. The record does not give: the amount of reagent, the time to read-out, the dose of the treatment.

- Purpose: 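Knock-downs that push a Wingless-driven reporter up or down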 (primary screen)
- Cells: Drosophila clone 8 imaginal disc epithelial cells
- Reagent: long dsRNA against Drosophila genes
- Challenge: pathway stimulated by co-transfected Wingless expression plasmid
- Read-out: 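Dual luciferase reads per well after Wingless plasmid stimulation: reporter firefly light and Renilla control light; activity is firefly divided by Renilla, a ratio not deposited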
- Scale: firefly reporter light: higher = more Wg reporter light, before normalisation; Renilla control light: higher = more transfected or surviving cells
- Hit rule: 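a knock-down is a candidate when at least two out of four statistical tests show it departing from its plate mean; one test alone signals a weak candidate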
- Meaning of the calls: active = candidate regulator (raises or lowers reporter); inactive = not a candidate

gene,amplicon,"reporter change call, replicate 1","firefly reporter light, replicate 1","firefly reporter light, replicate 2","Renilla control light, replicate 1","Renilla control light, replicate 2"
CG4793 (GeneID 34941),DRSC01966,,2713,5451,842,2377
Cyp12c1 (GeneID 40037),DRSC11125,,3035,,1345,
CaBP1 (GeneID 34976),DRSC01984,,11316,,3286,
EMRE (GeneID 37071),DRSC06686,Wg reporter activity lowered (active),3570,,3255,
dpr1 (GeneID 2768858),DRSC05906,,20121,,8948,
dpr1 (GeneID 2768858),DRSC06399,,6615,,2444,
CG5726 (GeneID 37082),DRSC06946,,19296,,3373,
CG6834 (GeneID 41409),DRSC16125,Wg reporter activity lowered (active),4539,,3465,
bol (GeneID 39049),DRSC08964,,2392,,1592,
bol (GeneID 39049),DRSC10444,,2643,9520,1554,3961
bol (GeneID 39049),DRSC11329,,3747,6586,2224,4048
RpL28 + snoRNA:Or-CD12,DRSC08293,,5992,,1835,
CG13083 (GeneID 35230),DRSC02187,,2880,6067,699,1507
dec (GeneID 31691),DRSC18759,,32290,,17280,
dec (GeneID 31691),DRSC21477,,2.76e5,3.31e5,1.76e5,1.41e5
SC35 (GeneID 53444),DRSC02502,,2618,5959,597,2304
SC35 (GeneID 53444),DRSC03425,,2208,9861,1195,3864
B52 (GeneID 41670),DRSC14121,,7597,8.10e5,4554,4.05e5

A few values from above:
Entry for EMRE (GeneID 37071) [DRSC06686] under “reporter change call, replicate 1”: Wg reporter activity lowered (active)
SC35 (GeneID 53444) [DRSC02502], firefly reporter light, replicate 1 → 2618

The list goes on.
gene,amplicon,"reporter change call, replicate 1","firefly reporter light, replicate 1","firefly reporter light, replicate 2","Renilla control light, replicate 1","Renilla control light, replicate 2"
CG17163 (GeneID 3354988),DRSC20901,,20504,,8837,
CG42680 (GeneID 10178899),DRSC01399,,17851,,9324,
Deaf1 (GeneID 40164),DRSC11143,,24695,,7264,
Deaf1 (GeneID 40164),DRSC22786,,6.19e5,7.25e5,1.54e5,1.70e5
CG34028 (GeneID 3885648),DRSC17614,,3430,,1256,
Pkc53E (GeneID 48311),DRSC05636,,16524,,8756,
Pkc53E (GeneID 48311),DRSC07510,,7878,,3548,
CG14200 (GeneID 32939),DRSC19555,,17410,,151,
CG13160 (GeneID 36343),DRSC06284,,5133,,2530,
Slimp (GeneID 318604),DRSC13656,,3475,,1312,
NijB (GeneID 40057),DRSC09850,,3602,,1242,
